Source: US20190352381A1 (Alexion, published 2019)
Results are given in words; binding and its absence hold for the method and conditions named. Some entries that bind do so weakly or less than the wild type.

Sequences of proteins named here, by UniProt entry; tags and fusion partners are left off. Residues count along the entry.
UniProt P27918, residues 28-469: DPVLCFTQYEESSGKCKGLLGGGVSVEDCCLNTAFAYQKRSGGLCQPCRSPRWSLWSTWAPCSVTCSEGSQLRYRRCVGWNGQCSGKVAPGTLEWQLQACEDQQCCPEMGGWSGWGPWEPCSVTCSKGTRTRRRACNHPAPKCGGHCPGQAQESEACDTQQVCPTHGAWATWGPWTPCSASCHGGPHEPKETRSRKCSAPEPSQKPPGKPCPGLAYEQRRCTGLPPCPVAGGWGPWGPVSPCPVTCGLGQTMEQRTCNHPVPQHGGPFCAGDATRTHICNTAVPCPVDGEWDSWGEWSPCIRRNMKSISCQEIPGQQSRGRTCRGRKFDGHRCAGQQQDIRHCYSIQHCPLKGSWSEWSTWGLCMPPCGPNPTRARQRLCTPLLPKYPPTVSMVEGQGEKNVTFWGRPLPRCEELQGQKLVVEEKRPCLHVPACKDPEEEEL

Legend:
[1] = target: cynomolgus properdin (cynomolgus); assay: sensorgram (Resp. Diff. in RU against time) with fitted curves, panel title 'Cyno Properdin_TPP2951 - 21Nov17'; properdin capture method
[2] = target: cynomolgus properdin (cynomolgus); assay: sensorgram (Resp. Diff. in RU against time) with fitted curves, panel title 'Cyno Properdin_TPP3261 - 20Nov17'; properdin capture method
human properdin [3] = target: T1, human properdin (human, UniProt P27918 28-469); assay: BLI (Octet), legend of FIG. 1
human properdin [4] = target: T1, human properdin; assay: BLI (Octet), biotinylated human properdin on streptavidin biosensors, VHH at 10 µg/mL

Row | Binder | binding [1] | binding [2] | binding (human properdin [3]) | binding (human properdin [4])
1 | TPP-2951 (Humanized anti-Albumin LVP058 (G4S)3 Linker (7-backmutations)) (bispecific antibody, Single chain: anti-albumin VHH, (G4S)3 linker, humanized LVP058 with 7 back mutations) EVQLVESGGGLVKPGGSLRLSCAASGRPVSNYAAAWFRQAPGKEREFVSAINWQKTATYADSVKGRFTISRDNAKNSLYLQMNSLRAEDTAVYYCAAVFRVVAPKTQYDYDYWGQGTLVTVSSGGGGSGGGGSGGGGSEVQLLESGGGLVQPGGSLRLSCAASGRISSIIHMAWFRQAPGKERELVSEISRVGTTVYADSVKGRFTISRDNSKNTLYLQMNSLKPEDTAVYYCNALQYEKHGGADYWGQGTLVTVSS | binds | – | – | –
2 | AB008 (VHH, Llama VHH, cloned and expressed with a 6x histidine tag; also called anti-properdin VHH AB008) VHH: QVQLVESGGGLRQTGESLRLSCTASGRIFEVNMMAWYRQAPGKQRELVAEISRVGTTTYADSVKGRFTISRDSAKNTVTLQMNSLKSEDTAVYYCNALQYDRYGGAEYWGQGTQVTVSG | – | – | binds | binds
3 | AB005 (VHH) VHH: QVQVVESGGGLRQTGGSLRLSCTASGRIFEVNMMAWYRQAPGKQRELVAEISRVGTTVYADSVKGRFTISRDSAKNTVTLQMNSLKSEDTAVYYCNALQYDRYGGAEYWGQGTQVTVSS | – | – | binds | binds

Second part, the binder after the results:

Row | binding [1] | binding [2] | binding (human properdin [3]) | binding (human properdin [4]) | Binder
4 | – | binds | – | – | TPP-3261 (Humanized anti-Albumin LVP058 (G4S)3 Linker (3-backmutations)) (bispecific antibody, Single chain: anti-albumin VHH, (G4S)3 linker, humanized LVP058 with 3 back mutations) EVQLVESGGGLVKPGGSLRLSCAASGRPVSNYAAAWFRQAPGKEREFVSAINWQKTATYADSVKGRFTISRDNAKNSLYLQMNSLRAEDTAVYYCAAVFRVVAPKTQYDYDYWGQGTLVTVSSGGGGSGGGGSGGGGSEVQLVESGGGLVQPGGSLRLSCAASGRISSIIHMAWVRQAPGKQRELVSEISRVGTTVYADSVKGRFTISRDNSKNTLYLQMNSLRAEDTAVYYCNALQYEKHGGADYWGQGTLVTVSS
5 | – | – | binds | binds | AB007 (VHH, Llama VHH, cloned and expressed with a 6x histidine tag; also called anti-properdin VHH AB007) VHH: QVQLVESGGGLVQAGGSLRLSCAASGRISSIIHMAWYRQAPGKQRELVAEISRVGTTVYADSVKGRFTISRDDAKNTVTLQMNSLKPEDTAVYYCNALQYEKHGGADYWGQGTQVTVSG
6 | – | – | binds | binds | AB006 (VHH) VHH: QVQLAESGGGLVQAGDSLKLSCTASGRIFEVNMMAWYRQAPGKDRELVAEISRVGTTTYADSVKGRFTISRDSAKNTVTLQMNSLKSEDTAVYYCNALQYSRYGGAEYWGQGTQVTVSG
